Results as given in the supplement of paper PMC12067093, “Discovery and optimisation of a covalent ligand for TRIM25 and its application to targeted protein ubiquitination” (Chemical Science, 2025).
This is one part of the list.

Sequences of proteins named here, by UniProt entry; tags and fusion partners are left off. A change or cut given only in a name is not applied to a line headed by its entry.
UniProt P53634: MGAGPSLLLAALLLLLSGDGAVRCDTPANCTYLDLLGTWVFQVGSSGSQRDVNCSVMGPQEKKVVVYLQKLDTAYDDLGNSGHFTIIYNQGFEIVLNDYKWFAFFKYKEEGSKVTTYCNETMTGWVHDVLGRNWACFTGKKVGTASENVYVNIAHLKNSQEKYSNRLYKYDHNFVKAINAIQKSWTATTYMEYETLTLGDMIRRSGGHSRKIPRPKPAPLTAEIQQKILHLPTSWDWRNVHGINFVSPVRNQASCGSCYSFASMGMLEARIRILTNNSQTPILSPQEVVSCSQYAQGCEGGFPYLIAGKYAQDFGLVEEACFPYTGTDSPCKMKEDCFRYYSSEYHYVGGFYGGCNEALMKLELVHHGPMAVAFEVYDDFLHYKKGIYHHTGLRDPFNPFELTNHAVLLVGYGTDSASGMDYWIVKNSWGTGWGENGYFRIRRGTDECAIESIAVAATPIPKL
UniProt Q9Y4B6: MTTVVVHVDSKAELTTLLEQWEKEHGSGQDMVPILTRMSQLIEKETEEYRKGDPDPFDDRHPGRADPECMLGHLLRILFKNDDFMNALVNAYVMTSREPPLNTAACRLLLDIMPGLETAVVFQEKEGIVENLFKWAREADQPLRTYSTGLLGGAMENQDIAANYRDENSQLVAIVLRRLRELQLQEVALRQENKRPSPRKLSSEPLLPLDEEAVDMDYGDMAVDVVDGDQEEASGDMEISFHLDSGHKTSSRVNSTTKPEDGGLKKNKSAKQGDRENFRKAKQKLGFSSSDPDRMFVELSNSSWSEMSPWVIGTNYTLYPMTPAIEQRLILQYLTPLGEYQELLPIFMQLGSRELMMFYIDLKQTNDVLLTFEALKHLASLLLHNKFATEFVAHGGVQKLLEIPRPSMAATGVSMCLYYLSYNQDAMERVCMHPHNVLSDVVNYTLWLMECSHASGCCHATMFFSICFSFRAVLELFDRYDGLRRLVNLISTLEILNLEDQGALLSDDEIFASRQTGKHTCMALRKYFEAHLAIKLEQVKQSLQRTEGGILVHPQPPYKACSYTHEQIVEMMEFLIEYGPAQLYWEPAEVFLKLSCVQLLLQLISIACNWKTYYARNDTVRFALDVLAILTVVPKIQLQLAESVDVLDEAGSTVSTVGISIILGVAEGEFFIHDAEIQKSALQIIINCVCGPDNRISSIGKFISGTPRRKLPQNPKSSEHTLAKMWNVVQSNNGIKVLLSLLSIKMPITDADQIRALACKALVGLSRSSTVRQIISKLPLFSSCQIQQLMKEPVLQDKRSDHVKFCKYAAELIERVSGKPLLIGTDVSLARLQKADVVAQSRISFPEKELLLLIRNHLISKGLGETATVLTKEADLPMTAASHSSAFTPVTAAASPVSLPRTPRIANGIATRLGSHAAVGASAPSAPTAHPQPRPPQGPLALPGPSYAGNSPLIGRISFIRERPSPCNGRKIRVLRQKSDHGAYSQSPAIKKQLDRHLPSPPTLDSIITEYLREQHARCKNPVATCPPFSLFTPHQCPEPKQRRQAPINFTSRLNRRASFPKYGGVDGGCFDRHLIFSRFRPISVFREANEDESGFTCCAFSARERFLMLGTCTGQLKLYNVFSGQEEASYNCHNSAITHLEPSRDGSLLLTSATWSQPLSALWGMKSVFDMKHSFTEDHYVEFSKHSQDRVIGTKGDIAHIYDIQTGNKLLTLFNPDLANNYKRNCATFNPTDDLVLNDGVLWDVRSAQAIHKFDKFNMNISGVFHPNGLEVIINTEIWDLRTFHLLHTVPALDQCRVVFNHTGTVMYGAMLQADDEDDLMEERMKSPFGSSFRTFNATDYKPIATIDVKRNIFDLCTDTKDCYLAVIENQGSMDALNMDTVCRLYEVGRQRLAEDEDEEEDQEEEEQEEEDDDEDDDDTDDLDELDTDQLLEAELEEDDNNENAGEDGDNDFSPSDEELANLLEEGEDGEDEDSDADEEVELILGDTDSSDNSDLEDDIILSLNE
UniProt Q9P0U4, whole entry, looked up: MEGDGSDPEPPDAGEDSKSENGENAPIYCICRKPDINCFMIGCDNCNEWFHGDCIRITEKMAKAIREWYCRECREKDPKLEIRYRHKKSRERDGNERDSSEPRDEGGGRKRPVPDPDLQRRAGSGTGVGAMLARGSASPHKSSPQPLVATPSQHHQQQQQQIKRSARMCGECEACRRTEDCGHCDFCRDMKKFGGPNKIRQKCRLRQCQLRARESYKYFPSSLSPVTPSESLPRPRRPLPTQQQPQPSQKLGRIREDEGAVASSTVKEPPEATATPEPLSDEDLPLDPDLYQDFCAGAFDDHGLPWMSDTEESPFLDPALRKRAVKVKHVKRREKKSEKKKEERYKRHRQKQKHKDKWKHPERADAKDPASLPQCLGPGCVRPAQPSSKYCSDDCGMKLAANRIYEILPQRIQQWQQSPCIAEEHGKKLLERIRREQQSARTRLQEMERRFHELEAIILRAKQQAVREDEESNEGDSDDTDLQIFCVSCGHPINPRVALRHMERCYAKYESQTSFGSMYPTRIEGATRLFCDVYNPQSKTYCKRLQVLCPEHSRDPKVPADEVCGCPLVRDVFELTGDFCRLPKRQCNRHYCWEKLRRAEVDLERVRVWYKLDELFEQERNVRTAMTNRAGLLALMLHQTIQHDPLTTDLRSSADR
UniProt Q5VU92: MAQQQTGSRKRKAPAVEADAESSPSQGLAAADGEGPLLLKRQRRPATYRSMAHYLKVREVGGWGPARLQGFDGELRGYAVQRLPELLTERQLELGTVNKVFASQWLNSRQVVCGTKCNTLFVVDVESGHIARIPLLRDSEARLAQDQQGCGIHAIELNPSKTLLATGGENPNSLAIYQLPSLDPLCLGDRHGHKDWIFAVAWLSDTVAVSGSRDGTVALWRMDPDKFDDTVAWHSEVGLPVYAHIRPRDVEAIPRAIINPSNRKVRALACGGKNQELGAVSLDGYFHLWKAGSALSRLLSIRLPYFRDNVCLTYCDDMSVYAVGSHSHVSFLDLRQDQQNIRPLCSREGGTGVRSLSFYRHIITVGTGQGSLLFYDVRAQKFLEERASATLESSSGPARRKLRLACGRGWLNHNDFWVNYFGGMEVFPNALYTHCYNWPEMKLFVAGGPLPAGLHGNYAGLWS
UniProt Q9NV06: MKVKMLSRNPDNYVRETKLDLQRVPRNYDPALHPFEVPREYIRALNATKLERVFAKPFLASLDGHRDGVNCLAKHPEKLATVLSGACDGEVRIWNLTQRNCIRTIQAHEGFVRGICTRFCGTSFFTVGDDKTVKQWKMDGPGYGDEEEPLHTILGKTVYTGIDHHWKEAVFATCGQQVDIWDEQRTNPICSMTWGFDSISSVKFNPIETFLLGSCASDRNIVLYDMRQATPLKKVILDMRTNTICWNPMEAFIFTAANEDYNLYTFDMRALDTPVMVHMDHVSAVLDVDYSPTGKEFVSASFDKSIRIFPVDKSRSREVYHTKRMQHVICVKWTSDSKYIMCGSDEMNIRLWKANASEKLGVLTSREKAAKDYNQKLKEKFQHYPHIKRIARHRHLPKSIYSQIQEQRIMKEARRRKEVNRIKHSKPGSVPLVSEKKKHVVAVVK
UniProt P25025, whole entry: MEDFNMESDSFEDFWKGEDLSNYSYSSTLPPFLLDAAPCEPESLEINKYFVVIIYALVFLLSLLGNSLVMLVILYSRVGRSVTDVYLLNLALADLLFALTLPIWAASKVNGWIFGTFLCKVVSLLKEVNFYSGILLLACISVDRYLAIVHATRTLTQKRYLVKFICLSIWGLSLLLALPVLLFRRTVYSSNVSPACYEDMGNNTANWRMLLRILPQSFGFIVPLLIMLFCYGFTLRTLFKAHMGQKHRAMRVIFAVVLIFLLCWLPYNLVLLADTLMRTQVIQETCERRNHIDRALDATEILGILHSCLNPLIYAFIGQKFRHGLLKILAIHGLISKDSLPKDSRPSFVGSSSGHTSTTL

Compound: CC1Cc2ccccc2N1C(=O)C1CCCN(C1)C(=O)CCl (mixture of isomers) [TRIM25 ligand 11 (diastereomer mixture)]
Test: probe-labelled cysteine peptide fold change vs DMSO (competition) (log2 fold change); higher = less target engagement (more negative = stronger competition)
Details: THP-1, incubation time: 4 h
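Further: competitive chemoproteomic profiling in live THP-1 cells with an iodoacetamide desthiobiotin (IA-DTB) probe, comparing probe-labelled peptide intensities in compound-treated cells against DMSO-treated controls.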

Target | probe-labelled cysteine peptide fold change (10 µM) | probe-labelled cysteine peptide fold change (50 µM)
CYB5R3_P00387_204_AIMKDPDDHTVCHLLFANQTEK (UniProt P00387) | -0.116 | -0.072
CTSC_P53634_136_NWACFTGK (UniProt P53634) | -0.0591 | -0.0137
DAP3_P51398_139_TLSLCHVIHFCAK (UniProt P51398) | 0.249 | 0.208
DCAF1_Q9Y4B6_1297_TFHLLHTVPALDQCR (UniProt Q9Y4B6) | 0.35 | 0.409
CXXC1_Q9P0U4_420_IQQWQQSPCIAEEHGK (UniProt Q9P0U4) | 0.116 | 0.0898
DCAF1_Q9Y4B6_1037_NPVATCPPFSLFTPHQCPEPK (UniProt Q9Y4B6) | -0.13 | -0.0666
DCAF12L1_Q5VU92_117_CNTLFVVDVESGHIAR (UniProt Q5VU92) | 0.195 | 0.138
CYB5R1_Q9UHQ9_288_EHLPAPGDDVLVLLCGPPPMVQLACHPNLDK (UniProt Q9UHQ9) | -0.503 | -0.158
CXXC1_Q9P0U4_564_VPADEVCGCPLVR (UniProt Q9P0U4) | 0.00234 | -0.0541
CTSB_P07858_179_GLVSGGLYESHVGCR (UniProt P07858) | 0.274 | 0.0981
CTR9_Q6PD62_511_LYEAMCEFHEAEK (UniProt Q6PD62) | -6.99e-06 | 0.00546
DCAF13_Q9NV06_330_RMQHVICVK (UniProt Q9NV06) | 0.155 | 0.332
CYB5R3_P00387_274+284_DHLPPPEEEPLVLMCGPPPMIQYACLPNLDHVGHPTER (UniProt P00387) | 0.161 | 0.0132
CXCR2_P25025_286_TQVIQETCER (UniProt P25025) | 0.104 | 0.088

Laid out differently: entries from further up
Target,probe-labelled cysteine peptide fold change (10 µM),probe-labelled cysteine peptide fold change (50 µM)
CXXC1_Q9P0U4_564_VPADEVCGCPLVR (UniProt Q9P0U4),0.00234,-0.0541
CTSB_P07858_179_GLVSGGLYESHVGCR (UniProt P07858),0.274,0.0981
